Literature values in US6521659B2, “Compositions containing a substituted indolealkanoic acid and an angiotensin converting enzyme inhibitor” (Institute for Pharmaceutical Discovery, LLC, priority 2000, dated 2003).
Some entries share one result that the patent states for a list of compounds. At least one structure is not confirmed: it was looked up by name or label, or the drawing left a doubt.

Tested on: diabetic (db/db) mice
Conditions: cited from earlier work

CN(C)C(=N)N=C(N)N [metformin]
dose above which a beneficial effect begins in db/db mice: above 100 mg/kg/day

Cc1c(C)c2c(c(C)c1O)CCC(C)(COc1ccc(CC3SC(=O)NC3=O)cc1)O2 (centres unmarked) [troglitazone, +−5[[4-[(3,4-dihydro-6-hydroxy-2,5,7,8-tetramethyl-2H-1-benzopyran-2-yl)methoxy]phenyl]methyl]-2,4-thiazolidinedione]
dose above which a beneficial effect begins in db/db mice: above 100 mg/kg/day
